Experimental data: PubChem BioAssay AID1259289 (Sanger Institute, 2017)
Test: 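Kinase-wide silencing tested with three anchor drugs to reveal synergistic lethal pairs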 (primary screen). System: human LS513 colorectal cancer cells. Knock-down reagent: siRNA pool against human genes. Challenge: anchor drug BYL719 at 1 µM, cetuximab at 5 µg/ml or trametinib at 10 nM, or DMSO vehicle alone; exposure time not given. Detection: 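Cell survival as a fraction of the non-targeting pool, replicate means; robust z-score for silencing alone under DMSO; synergy score for each of BYL719, cetuximab and trametinib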. Scale: robust z-score, siRNA alone (DMSO): higher = more viable cells; strongly negative means essential; viability with DMSO vs control: higher = more viable cells. Hit rule: 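Called essential when silencing alone under DMSO gives a robust z-score below -3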. Meaning of the calls: active = essential (knock-down alone); inactive = not essential.
In all, the deposit lists 794 reagents; this is an unselected part. In the full data, 16 (2%) are marked active. 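Active marks cell loss from silencing alone; drug synergy shows only in the synergy scores, not the calls.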 Entries without a mark were called inactive. No viability above 1 is reported: the scale is capped. Further read-outs or replicates are left out here. Not stated in the record: the amount of reagent, the time to read-out.

After knock-down of DYRK4 the results were robust z-score, siRNA alone (DMSO) = 0.561; viability with DMSO vs control (fraction of control) = 1.
BUB1B gave robust z-score, siRNA alone (DMSO) = -0.941; viability with DMSO vs control (fraction of control) = 0.787.
After knock-down of LRRK2, the screen gave robust z-score, siRNA alone (DMSO) = 0.561; viability with DMSO vs control (fraction of control) = 1.
ANKK1 scored robust z-score, siRNA alone (DMSO) = -0.776; viability with DMSO vs control (fraction of control) = 0.81.
Depletion of PIM2 resulted in: robust z-score, siRNA alone (DMSO) = 0.206; viability with DMSO vs control (fraction of control) = 0.95.
Silencing of SCYL3 came out at: robust z-score, siRNA alone (DMSO) = 0.561; viability with DMSO vs control (fraction of control) = 1.
After knock-down of CLSPN, the record shows robust z-score, siRNA alone (DMSO) = -2.32; viability with DMSO vs control (fraction of control) = 0.591.
Depletion of NPR2 gave: robust z-score, siRNA alone (DMSO) = 0.561; viability with DMSO vs control (fraction of control) = 1.
For MTOR, the values are robust z-score, siRNA alone (DMSO) = 0.561; viability with DMSO vs control (fraction of control) = 1.
For FLT1 the deposit lists robust z-score, siRNA alone (DMSO) = 0.561; viability with DMSO vs control (fraction of control) = 1.
HSPB8 showed robust z-score, siRNA alone (DMSO) = -0.211; viability with DMSO vs control (fraction of control) = 0.89.
Depletion of POLR2B gave: robust z-score, siRNA alone (DMSO) = -1.36; viability with DMSO vs control (fraction of control) = 0.727.
After knock-down of GUCY2D the results were robust z-score, siRNA alone (DMSO) = -4.39 (active); viability with DMSO vs control (fraction of control) = 0.297.
After knock-down of MAK the results were robust z-score, siRNA alone (DMSO) = 0.561; viability with DMSO vs control (fraction of control) = 1.

Entries above whose gene name starts with M or m (2):
MTOR — robust z-score, siRNA alone (DMSO) = 0.561; viability with DMSO vs control (fraction of control) = 1
MAK — robust z-score, siRNA alone (DMSO) = 0.561; viability with DMSO vs control (fraction of control) = 1

The list goes on:
Knock-down of ULK2 came out at: robust z-score, siRNA alone (DMSO) = 0.561; viability with DMSO vs control (fraction of control) = 1.
Depletion of DGUOK came out at: robust z-score, siRNA alone (DMSO) = -2.92; viability with DMSO vs control (fraction of control) = 0.506.
For SPEG, the values are robust z-score, siRNA alone (DMSO) = 0.561; viability with DMSO vs control (fraction of control) = 1.
MARK4 showed robust z-score, siRNA alone (DMSO) = 0.393; viability with DMSO vs control (fraction of control) = 0.976.
Against DCLK1 the deposit lists robust z-score, siRNA alone (DMSO) = -0.386; viability with DMSO vs control (fraction of control) = 0.866.
Depletion of SOX9 gave: robust z-score, siRNA alone (DMSO) = 0.561; viability with DMSO vs control (fraction of control) = 1.
PRKAG1 scored robust z-score, siRNA alone (DMSO) = 0.561; viability with DMSO vs control (fraction of control) = 1.
CLK2 showed robust z-score, siRNA alone (DMSO) = 0.561; viability with DMSO vs control (fraction of control) = 1.
GUCY2F scored robust z-score, siRNA alone (DMSO) = 0.561; viability with DMSO vs control (fraction of control) = 1.
Depletion of GNAS gave: robust z-score, siRNA alone (DMSO) = -2; viability with DMSO vs control (fraction of control) = 0.637.
IKBKE gave robust z-score, siRNA alone (DMSO) = -0.716; viability with DMSO vs control (fraction of control) = 0.819.
After knock-down of FER, the screen gave robust z-score, siRNA alone (DMSO) = 0.561; viability with DMSO vs control (fraction of control) = 1.
After knock-down of HIPK2 the results were robust z-score, siRNA alone (DMSO) = 0.561; viability with DMSO vs control (fraction of control) = 1.
CDC42BPG scored robust z-score, siRNA alone (DMSO) = 0.561; viability with DMSO vs control (fraction of control) = 1.
